One test has as its target T1, IRF-4-FLAG (UniProt Q15306).
T1 sequence: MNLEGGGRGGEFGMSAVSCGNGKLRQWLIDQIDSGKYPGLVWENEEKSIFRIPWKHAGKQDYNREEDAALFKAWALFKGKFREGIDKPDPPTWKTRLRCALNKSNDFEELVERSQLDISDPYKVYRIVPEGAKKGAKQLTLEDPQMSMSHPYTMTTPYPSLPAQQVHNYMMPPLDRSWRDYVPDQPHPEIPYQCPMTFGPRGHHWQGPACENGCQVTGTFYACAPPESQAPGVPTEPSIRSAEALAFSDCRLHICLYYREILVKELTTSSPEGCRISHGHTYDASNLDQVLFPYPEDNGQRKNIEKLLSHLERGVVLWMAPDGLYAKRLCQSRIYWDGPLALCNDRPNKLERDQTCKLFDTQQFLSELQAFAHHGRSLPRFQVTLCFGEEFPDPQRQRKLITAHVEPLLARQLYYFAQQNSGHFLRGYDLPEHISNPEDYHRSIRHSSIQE
Briefly: co-IP; DG75 cells co-transfected with IRF-4-FLAG and pA3M-LANA or vector, 48 hr; RIPA lysates; IP with anti-FLAG (M2), immunoblotting.

By UniProt entry, the sequences of proteins in these tests, tags left out.
UniProt Q9QR71: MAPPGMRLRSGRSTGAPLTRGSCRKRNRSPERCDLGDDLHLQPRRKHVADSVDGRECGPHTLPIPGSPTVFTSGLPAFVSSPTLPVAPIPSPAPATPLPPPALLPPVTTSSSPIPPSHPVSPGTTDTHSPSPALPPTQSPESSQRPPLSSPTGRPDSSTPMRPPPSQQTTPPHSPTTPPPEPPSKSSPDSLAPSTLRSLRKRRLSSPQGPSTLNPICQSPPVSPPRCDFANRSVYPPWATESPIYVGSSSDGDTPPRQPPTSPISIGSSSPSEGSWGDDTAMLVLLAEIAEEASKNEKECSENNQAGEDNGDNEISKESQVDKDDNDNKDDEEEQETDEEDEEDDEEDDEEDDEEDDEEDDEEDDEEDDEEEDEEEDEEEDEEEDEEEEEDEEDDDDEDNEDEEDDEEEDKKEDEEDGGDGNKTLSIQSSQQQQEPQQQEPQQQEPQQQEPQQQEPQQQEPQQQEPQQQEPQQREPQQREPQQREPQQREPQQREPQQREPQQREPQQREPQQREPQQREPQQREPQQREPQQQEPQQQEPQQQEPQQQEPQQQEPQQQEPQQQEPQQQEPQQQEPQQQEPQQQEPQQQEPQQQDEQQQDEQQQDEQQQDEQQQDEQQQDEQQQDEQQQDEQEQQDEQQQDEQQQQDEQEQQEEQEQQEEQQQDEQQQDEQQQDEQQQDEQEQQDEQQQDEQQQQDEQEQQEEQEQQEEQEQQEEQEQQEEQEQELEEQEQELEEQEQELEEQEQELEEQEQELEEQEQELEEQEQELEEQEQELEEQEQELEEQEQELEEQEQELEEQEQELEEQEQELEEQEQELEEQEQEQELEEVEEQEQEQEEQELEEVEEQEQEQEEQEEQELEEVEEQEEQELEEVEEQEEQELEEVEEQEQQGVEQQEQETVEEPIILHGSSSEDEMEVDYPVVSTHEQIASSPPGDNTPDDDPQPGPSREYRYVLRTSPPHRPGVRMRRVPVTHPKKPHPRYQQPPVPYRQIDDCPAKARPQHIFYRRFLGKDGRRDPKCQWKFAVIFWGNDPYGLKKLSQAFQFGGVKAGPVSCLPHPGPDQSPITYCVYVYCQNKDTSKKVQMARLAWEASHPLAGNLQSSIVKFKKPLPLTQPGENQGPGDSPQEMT

Test [1] deals with T2, endogenous IRF-4 of BC3 cells (human (endogenous in BC3)) (UniProt Q15306).
T2 sequence: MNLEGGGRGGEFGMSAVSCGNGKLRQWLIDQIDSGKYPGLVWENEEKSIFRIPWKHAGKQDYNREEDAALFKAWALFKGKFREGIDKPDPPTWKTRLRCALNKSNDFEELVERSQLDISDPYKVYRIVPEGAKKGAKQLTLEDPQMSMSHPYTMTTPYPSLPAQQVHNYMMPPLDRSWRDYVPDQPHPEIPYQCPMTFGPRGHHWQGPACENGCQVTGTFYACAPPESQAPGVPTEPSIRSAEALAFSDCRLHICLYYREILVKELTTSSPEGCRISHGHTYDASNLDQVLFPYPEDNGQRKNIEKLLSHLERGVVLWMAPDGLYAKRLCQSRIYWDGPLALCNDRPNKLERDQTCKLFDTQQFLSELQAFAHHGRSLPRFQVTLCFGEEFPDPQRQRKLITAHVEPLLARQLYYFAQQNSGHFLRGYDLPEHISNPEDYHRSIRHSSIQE
Briefly: co-IP; BC3 (PEL) cell lysates, endogenous proteins; IP with anti-LANA antibody or anti-IRF-4 antibody, control mouse serum / normal serum IgG preclear; immunoblotting.

Test [2] has as its target endogenous LANA of KSHV-positive BC3 cells (Kaposi's sarcoma-associated herpesvirus (KSHV) (endogenous in KSHV-positive BC3 cells)) (UniProt Q9QR71). The test is described as above.

These are yes or no findings as the source states them, for the method shown. In cells and extracts the contact can be indirect. Some entries that bind do so weakly or less than the wild type. For part of these data: Tags and fused reporters may be left off the sequences shown.

The values below come from paper PMC3814934.

For “LANA full length in the pA3M vector (LANA-myc) (from UniProt Q9QR71 1-1129)”, the binding result with IRF-4-FLAG is “binds”. Take “endogenous LANA of KSHV-positive BC3 cells (from UniProt Q9QR71 1-1129)”: in test [1], the binding entry is on record as “binds”.

B1: endogenous IRF-4 of BC3 cells (protein, UniProt Q15306 1-451)
chain: MNLEGGGRGGEFGMSAVSCGNGKLRQWLIDQIDSGKYPGLVWENEEKSIFRIPWKHAGKQDYNREEDAALFKAWALFKGKFREGIDKPDPPTWKTRLRCALNKSNDFEELVERSQLDISDPYKVYRIVPEGAKKGAKQLTLEDPQMSMSHPYTMTTPYPSLPAQQVHNYMMPPLDRSWRDYVPDQPHPEIPYQCPMTFGPRGHHWQGPACENGCQVTGTFYACAPPESQAPGVPTEPSIRSAEALAFSDCRLHICLYYREILVKELTTSSPEGCRISHGHTYDASNLDQVLFPYPEDNGQRKNIEKLLSHLERGVVLWMAPDGLYAKRLCQSRIYWDGPLALCNDRPNKLERDQTCKLFDTQQFLSELQAFAHHGRSLPRFQVTLCFGEEFPDPQRQRKLITAHVEPLLARQLYYFAQQNSGHFLRGYDLPEHISNPEDYHRSIRHSSIQE
Consider B1, for which the binding result in test [2] is “binds”.
